Reference: paper PMC6922451
Results are given in words; binding and its absence hold for the method and conditions named. Binding seen in cells or lysates may run through a third protein. Here binding means that the protein was enriched with, or labelled near, the bait; the list need not be complete.

Protein sequences, listed by entry. Tags and fused reporters are not part of them. Lines headed by an entry give the natural chain unless they say otherwise; changes in a name come on top.
UniProt W7XGG1: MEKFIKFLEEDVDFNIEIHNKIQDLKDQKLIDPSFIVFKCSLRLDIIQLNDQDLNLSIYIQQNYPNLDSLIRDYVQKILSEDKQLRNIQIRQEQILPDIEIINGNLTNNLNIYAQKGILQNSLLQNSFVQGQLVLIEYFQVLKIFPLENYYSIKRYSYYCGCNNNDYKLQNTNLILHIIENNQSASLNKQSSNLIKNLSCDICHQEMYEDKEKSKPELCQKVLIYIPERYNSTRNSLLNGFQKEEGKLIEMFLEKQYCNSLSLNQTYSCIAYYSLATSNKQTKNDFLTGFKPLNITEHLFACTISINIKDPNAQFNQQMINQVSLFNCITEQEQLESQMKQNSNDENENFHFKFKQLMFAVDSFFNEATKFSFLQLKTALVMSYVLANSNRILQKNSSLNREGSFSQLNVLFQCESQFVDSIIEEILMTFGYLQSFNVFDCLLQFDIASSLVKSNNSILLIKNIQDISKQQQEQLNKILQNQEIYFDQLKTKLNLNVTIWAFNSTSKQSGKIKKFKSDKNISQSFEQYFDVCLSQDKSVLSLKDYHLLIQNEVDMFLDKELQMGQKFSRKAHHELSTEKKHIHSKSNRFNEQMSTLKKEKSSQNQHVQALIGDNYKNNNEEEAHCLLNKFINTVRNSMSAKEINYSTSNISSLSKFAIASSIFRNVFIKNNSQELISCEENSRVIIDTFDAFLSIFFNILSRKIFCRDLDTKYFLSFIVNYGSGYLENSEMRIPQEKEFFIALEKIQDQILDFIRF

Target: Mcmd1-HA (MCM Domain1, C-terminal hemagglutinin tag) (Tetrahymena thermophila) (UniProt Q23YR0)
Test: affinity purification with mass spectrometry; lysate of conjugating cells harvested ~3.5 h after meiotic induction (maximum nuclear elongation), ice-cold Tris lysis buffer, Dounce homogenizer, filtered; incubated with anti-HA affinity gel for 2 h at 4 °C; eluted proteins analysed by mass spectrometry

- binding: binds
Substance: Pamd1 (Partner of Mcmd1) (from UniProt W7XGG1)
